Measurements reported in PubChem BioAssay AID1159578 (Peter MacCallum Cancer Centre, 2015)
Purpose: 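Genome-wide hunt for genes controlling movement of lymphatic endothelial cells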 (primary screen). Cell system: human lymphatic endothelial cells. Knock-down reagent: siRNA pool against human genes, 40 nM. Duration: 48 h after transfection. Measurement: 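Cells stained with dye and imaged after a scratch; covered wound area and nuclei counted, duplicates averaged, migration set against mock wells and turned into a robust z-score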. Reading the numbers: migration robust z-score: higher = faster migration into the scratch; nuclei per well: higher = more cells in the well. Active means: 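Pools averaging fewer than 3300 nuclei are never called; remaining pools count as changed when migration robust z lies outside -2 to 2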. Meaning of the calls: active = migration changed; inactive = no migration change, or too few cells.
In all, the deposit lists about 18,000 reagents; this is a part drawn at random. About 1,030 of all reagents (5.7%) were called active. 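Inactive calls also include pools with fewer than 3300 nuclei, whose migration was not assessed.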 Raw values vary from plate to plate and are shown uncorrected. The numbers tell different reagents against one gene apart. Further read-outs or replicates are left out here.

gene knocked down	pool no.	migration robust z-score	nuclei per well, duplicate mean	outcome
SLC67A2	1	0.51	4800	inactive
VPS11	1	-2.12	5199	active
OR10R2	1	0.83	5740	inactive
OR5M8	1	0.95	6354	inactive
RNF144B	1	0.31	6011	inactive
AUH	1	-0.26	5868	inactive
ELP5	1	0.21	5244	inactive
SH3GLB1	1	0.03	6412	inactive
WWP2	1	-0.94	6573	inactive
AKAP4	1	-0.64	7231	inactive
PDE7A	1	0.91	3669	inactive
LAX1	1	-2.75	3339	active
SLC9D1	1	-1.39	6383	inactive
PEX19	1	1.75	6276	inactive
ABHD18	1	1.23	5286	inactive
CCL3L3	1	0.26	6002	inactive
CCDC146	1	0.24	6252	inactive
CD8A	1	-2.8	4358	active
CYP4F8	1	0.8	7632	inactive
PDE6C	1	0.8	5850	inactive
CPEB3	1	-1.56	4254	inactive
RNASEH2A	1	0.93	5372	inactive
PRELP	1	0.12	6097	inactive
PRB4	1	-0.04	6092	inactive
CAPN5	1	-2.08	5272	active
GTSE1	1	-0.83	5336	inactive
ANKRD40	1	-0.66	6231	inactive
XPOT	1	1.04	5692	inactive
RELL2	1	1.74	5896	inactive
DNAH8	1	0.36	5689	inactive
DAB2	1	-1.9	6931	inactive
PPP3CC	1	-4.41	2305	inactive
PCBP4	1	1.06	4752	inactive
RANBP3L	1	2.88	6266	active
ADIPOQ	1	0.41	5525	inactive
ARSA	1	-1.25	4464	inactive
OR4L1	1	1.2	6800	inactive
OPRM1	1	-0.6	7906	inactive
KCNK5	1	-2.05	5690	active
SUPT4H1	1	-2.59	3445	active
CGA	1	-1.12	4700	inactive
ABCG8	1	0.7	5202	inactive
PREX1	1	-1.34	7552	inactive
GGT6	1	-0.91	5014	inactive
CDRT4	1	-0.08	5898	inactive
SPANXD	1	1.85	6080	inactive
SPANXD	2	-1	4361	inactive
MYH10	1	0.3	6003	inactive
ZNF433	1	0.43	5800	inactive
GORASP1	1	1.02	6180	inactive
PAX6	1	0.08	6025	inactive
TNFRSF10D	1	-1.66	4241	inactive
CCAR2	1	-0.19	4804	inactive
POC5	1	1.84	4660	inactive
PTGR3	1	-1.74	5426	inactive
LENEP	1	-0.88	6130	inactive
ACADSB	1	-2.91	2710	inactive

Active calls, among the entries above:
gene knocked down	pool no.	migration robust z-score	nuclei per well, duplicate mean	outcome
VPS11	1	-2.12	5199	active
LAX1	1	-2.75	3339	active
CD8A	1	-2.8	4358	active
CAPN5	1	-2.08	5272	active
RANBP3L	1	2.88	6266	active
KCNK5	1	-2.05	5690	active
SUPT4H1	1	-2.59	3445	active
